Test results taken from paper PMC3219680 (2011).
These are yes or no findings as the source states them, for the method shown.

Target: T1, Mouse Cerberus 1 homologue (mCer1) recombinant protein (mouse) (UniProt O55233)
T1 sequence: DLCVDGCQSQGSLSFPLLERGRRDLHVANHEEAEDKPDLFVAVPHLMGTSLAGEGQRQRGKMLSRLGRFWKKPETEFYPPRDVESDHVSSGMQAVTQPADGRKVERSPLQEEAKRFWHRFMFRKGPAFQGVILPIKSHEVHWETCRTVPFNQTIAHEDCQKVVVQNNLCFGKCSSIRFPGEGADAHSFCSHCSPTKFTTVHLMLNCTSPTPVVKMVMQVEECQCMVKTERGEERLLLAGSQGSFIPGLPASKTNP
Assay: SPR; BIAcore 2000; mCer1 immobilised on a CM5 chip by amine group; hBMP2, hBMP4 or hGDNF (1 µg/ml) flowed over; 25°C; HBS-P buffer (10 mM HEPES, 150 mM NaCl, 0.005% Tween 20, pH 7.4); triplicate; both purified

B1: hGDNF (ligand, UniProt P39905 78-211)
chain: SPDKQMAVLPRRERNRQAAAANPENSRGKGRRGQRGKNRGCVLTAIHLNVTDLGLGYETKEELIFRYCSGSCDAAETTYDKILKNLSRNRRLVSDKVGQACCRPIAFDDDLSFLDDNLVYHILRKHSAKRCGCI
Question: B1 was tested. Which binding did it give?
Answer: The binding was “no binding (tested: 1 µg/ml)”.
